Measurements taken from patent US20240277890A1, “ANTIMICROBIAL ARTICLES COMPRISING POLYURETHANE” (Amicoat AS, priority 2021, published 2024).
Not every detail of the peptide structures is certain; ends, links or a residue may be inferred.

System: Morganella morganii - multi-drug resistant clinical isolate
Parameters: unit not given beside the values
Conditions: M. morganii multi-drug resistant isolate

N=C(N)NCCC[C@H](NC(=O)[C@H](Cc1ccc(-c2ccc3ccccc3c2)cc1)NC(=O)[C@@H](N)CCCNC(=N)N)C(=O)NCCc1ccccc1 [Compound 1]
MIC: ≥128
